Experimental data: patent publication US20230019999A1, “COMBINATION DRUG” (Chugai Seiyaku Kabushiki Kaisha, priority 2019, published 2023)
The name of at least one read-out is uncertain. Some compounds share one wording; it may come from a single statement.

System: human RET fusion gene-positive non-small cell lung cancer cell line LC-2/ad cells
Test: Cell proliferation assay with IC50 isobologram analysis of combinations, LC-2/ad cells
Assay type: cell-based
Settings: named agent in combination with alectinib, 4 days treatment, FIG. 1

SMILES	combination effect analyzed by IC50 isobologram analysis
Nc1nc2[nH]cc(CCc3ccc(C(=O)N[C@@H](CCC(=O)O)C(=O)O)cc3)c2c(=O)[nH]1 [pemetrexed]	antagonistic effect
CC(=O)O[C@H]1C(=O)[C@@]2(C)[C@H]([C@H](OC(=O)c3ccccc3)[C@]3(O)C[C@H](OC(=O)[C@H](O)[C@@H](NC(=O)c4ccccc4)c4ccccc4)C(C)=C1C3(C)C)[C@]1(OC(C)=O)CO[C@@H]1C[C@@H]2O [paclitaxel]	antagonistic effect
